Measurements published in patent publication US8084644B2, “Iminopropene compound and use thereof” (Sumitomo Chemical Company, Limited, priority 2005, dated 2011).
Some of these results come from one statement about several compounds together. Some compounds share one range, which may span the group rather than tell each member.

Experiments:
Type in all cases: in vivo
Plutella xylostella = assay: Test Example 9: cabbage test on diamondback, second-instar; conditions: 500 ppm, 25° C., after five days
Nilaparvata lugens = assay: Test Example 4: spray test on brown rice planthopper on rice; conditions: 500 ppm, first to second-instar larvae on rice, after 6 days
Aphis gossypii = assay: Test Example 3: spray test on cotton aphids on cucumber; conditions: 500 ppm, first-instar larvae on cucumber, after 6 days
Adoxophyes orana = assay: Test Example 2: artificial diet test on summer fruit tortrix larvae; conditions: 500 ppm, first-instar larvae, after 7 days
Spodoptela litura = assay: Test Example 1: artificial diet test on tobacco cutworm larvae; conditions: 500 ppm, fourth-instar larvae, after 6 days
Musca domestica = assay: Test Example 5: filter paper test on houseflies; conditions: 500 ppm, female adult houseflies, after 24 hours
Culex pipiens pallens = assay: Test Example 7: water treatment test on common mosquito larvae; conditions: concentration of active ingredient 3.5 ppm in water; last-instar larvae; after one day
Blattalla germanica = assay: Test Example 6: filter paper test on German cockroach; conditions: 500 ppm, male adult German cockroach, after 6 days

Compound: C(=CC(=Nc1ccccc1)Sc1ccccc1)Sc1ccccc1 [(1), Phenyl N-phenyl-3-(phenylthio)thioacrylimidate]
- index number (mortality) (Plutella xylostella): 3 (mortality 80 to 99%)
- index number (surviving rate based on untreated check) (Nilaparvata lugens): 3 (surviving rate 1 to 10%)

Compound: Clc1ccc(N=C(C=CSc2ccccc2)Sc2ccccc2)cc1 [(18), Phenyl N-(4-chlorophenyl)-3-(phenylthio)thioacrylimidate]
- index number (surviving rate based on untreated check) (Nilaparvata lugens): 3 (surviving rate 1 to 10%)

Compound: Clc1ccc(Cl)c(SC(C=CSc2ccccc2)=Nc2ccccc2)c1 [(20), 2,5-Dichlorophenyl N-phenyl-3-(phenylthio)thioacrylimidate]
- index number (surviving rate based on untreated check) (Aphis gossypii): 3 (surviving rate 1 to 10%)
- index number (mortality) (Adoxophyes orana): 3 (mortality 80 to 99%)
- index number (mortality) (Spodoptela litura): 3 (mortality 80 to 99%)
- index number (mortality) (Musca domestica): 3 (mortality 70 to 99%)
- index number (mortality) (Plutella xylostella): 3 (mortality 80 to 99%)
- index number (mortality) (Culex pipiens pallens): 4 (mortality 91 to 100%)
- index number (surviving rate based on untreated check) (Nilaparvata lugens): 3 (surviving rate 1 to 10%)

Compound: Clc1cccc(SC(C=CSc2ccccc2)=Nc2ccccc2)c1Cl [(34), 2,3-Dichlorophenyl N-phenyl-3-(phenylthio)thioacrylimidate]
- index number (surviving rate based on untreated check) (Aphis gossypii): 3 (surviving rate 1 to 10%)
- index number (mortality) (Blattalla germanica): 4 (mortality 100%)
- index number (mortality) (Adoxophyes orana): 3 (mortality 80 to 99%)
- index number (mortality) (Spodoptela litura): 3 (mortality 80 to 99%)
- index number (mortality) (Musca domestica): 3 (mortality 70 to 99%)
- index number (mortality) (Plutella xylostella): 3 (mortality 80 to 99%)
- index number (mortality) (Culex pipiens pallens): 4 (mortality 91 to 100%)

Compound: COc1ccc(N=C(C=COc2ccccc2)Oc2ccccc2)cc1 [(57), Phenyl N-(4-methoxyphenyl)-3-(phenoxy)acrylimidate]
- index number (mortality) (Adoxophyes orana): 3 (mortality 80 to 99%)
- index number (mortality) (Spodoptela litura): 3 (mortality 80 to 99%)
- index number (mortality) (Musca domestica): 3 (mortality 70 to 99%)
- index number (mortality) (Plutella xylostella): 3 (mortality 80 to 99%)
- index number (mortality) (Culex pipiens pallens): 4 (mortality 91 to 100%)
- index number (surviving rate based on untreated check) (Nilaparvata lugens): 3 (surviving rate 1 to 10%)

Compound: Clc1cc(Cl)cc(N=C(C=COc2ccccc2)Oc2ccccc2)c1 [(64), Phenyl N-(3,5-dichlorophenyl)-3-(phenoxy)acrylimidate]
- index number (surviving rate based on untreated check) (Aphis gossypii): 3 (surviving rate 1 to 10%)
- index number (mortality) (Adoxophyes orana): 3 (mortality 80 to 99%)
- index number (mortality) (Spodoptela litura): 3 (mortality 80 to 99%)
- index number (mortality) (Musca domestica): 3 (mortality 70 to 99%)
- index number (mortality) (Plutella xylostella): 3 (mortality 80 to 99%)
- index number (mortality) (Culex pipiens pallens): 4 (mortality 91 to 100%)
- index number (surviving rate based on untreated check) (Nilaparvata lugens): 3 (surviving rate 1 to 10%)

Compound: CCCc1ccc(N=C(C=CSc2ccccc2)Oc2ccccc2)cc1 [(73), Phenyl N-(4-propylphenyl)-3-(phenylthio)acrylimidate]
- index number (surviving rate based on untreated check) (Aphis gossypii): 3 (surviving rate 1 to 10%)
- index number (mortality) (Blattalla germanica): 4 (mortality 100%)
- index number (mortality) (Adoxophyes orana): 3 (mortality 80 to 99%)
- index number (mortality) (Spodoptela litura): 3 (mortality 80 to 99%)
- index number (mortality) (Musca domestica): 3 (mortality 70 to 99%)
- index number (mortality) (Plutella xylostella): 3 (mortality 80 to 99%)
- index number (mortality) (Culex pipiens pallens): 4 (mortality 91 to 100%)

Compound: CSc1ccc(N=C(C=COc2ccccc2)Oc2ccccc2)cc1 [(84), Phenyl N-(4-methylthiophenyl)-3-(phenoxy)acrylimidate]
- index number (surviving rate based on untreated check) (Aphis gossypii): 3 (surviving rate 1 to 10%)
- index number (mortality) (Adoxophyes orana): 3 (mortality 80 to 99%)
- index number (mortality) (Spodoptela litura): 3 (mortality 80 to 99%)
- index number (mortality) (Musca domestica): 3 (mortality 70 to 99%)
- index number (mortality) (Plutella xylostella): 3 (mortality 80 to 99%)
- index number (mortality) (Culex pipiens pallens): 4 (mortality 91 to 100%)
- index number (surviving rate based on untreated check) (Nilaparvata lugens): 3 (surviving rate 1 to 10%)

Compound: CCOC(C=CSCC)=Nc1ccccc1 [(151), Ethyl 3-ethylthio-N-phenylacrylimidate]
- index number (mortality) (Blattalla germanica): 4 (mortality 100%)
- index number (mortality) (Adoxophyes orana): 3 (mortality 80 to 99%)
- index number (mortality) (Spodoptela litura): 3 (mortality 80 to 99%)
- index number (mortality) (Plutella xylostella): 3 (mortality 80 to 99%)
- index number (surviving rate based on untreated check) (Nilaparvata lugens): 3 (surviving rate 1 to 10%)

Compound: C(=CC(=Nc1ccc(-c2ccsc2)cc1)Oc1ccccc1)Oc1ccccc1 [(159), Phenyl 3-phenoxy-N-(4-(3-thienyl)phenyl)acrylimidate]
- index number (surviving rate based on untreated check) (Aphis gossypii): 3 (surviving rate 1 to 10%)
- index number (mortality) (Adoxophyes orana): 3 (mortality 80 to 99%)
- index number (mortality) (Spodoptela litura): 3 (mortality 80 to 99%)
- index number (mortality) (Plutella xylostella): 3 (mortality 80 to 99%)
- index number (mortality) (Culex pipiens pallens): 4 (mortality 91 to 100%)
- index number (surviving rate based on untreated check) (Nilaparvata lugens): 3 (surviving rate 1 to 10%)

Compound: CSc1ccc(OC(C=CSc2ccccc2)=Nc2ccc(C(C)C)cc2)cc1 [(170), 4-Methylthiophenyl N-[4-(1-methylethyl)phenyl]-3-(phenylthio)acrylimidate]
- index number (mortality) (Adoxophyes orana): 3 (mortality 80 to 99%)
- index number (surviving rate based on untreated check) (Nilaparvata lugens): 3 (surviving rate 1 to 10%)

Compound: C=CCSC(C=CSc1ccccc1)=Nc1ccccc1 [(186), 2-Propenyl N-phenyl-3-(phenylthio)thioacrylimidate]
- index number (mortality) (Blattalla germanica): 4 (mortality 100%)
- index number (mortality) (Plutella xylostella): 3 (mortality 80 to 99%)
- index number (mortality) (Culex pipiens pallens): 4 (mortality 91 to 100%)
- index number (surviving rate based on untreated check) (Nilaparvata lugens): 3 (surviving rate 1 to 10%)

Compound: CCCSC(C=CSc1ccccc1)=Nc1ccc(C)cc1 [(280), Propyl N-(4-methylphenyl)-3-(phenylthio)thioacrylimidate]
- index number (surviving rate based on untreated check) (Nilaparvata lugens): 3 (surviving rate 1 to 10%)

Compound: CCCCSC(C=CSc1ccccc1)=Nc1ccc(C)cc1 [(284), Butyl N-(4-methylphenyl)-3-(phenylthio)thioacrylimidate]
- index number (surviving rate based on untreated check) (Aphis gossypii): 3 (surviving rate 1 to 10%)
- index number (mortality) (Musca domestica): 3 (mortality 70 to 99%)
- index number (surviving rate based on untreated check) (Nilaparvata lugens): 3 (surviving rate 1 to 10%)

Compound: Cc1cccc(OC(C=COc2ccccc2F)=Nc2ccc(C)c(C)c2)c1 [(286), 3-Methylphenyl N-(3,4-dimethylphenyl)-3-(2-fluorophenoxy)acrylimidate]
- index number (surviving rate based on untreated check) (Nilaparvata lugens): 3 (surviving rate 1 to 10%)

Compound: Cc1cccc(OC(C=COc2ccc(F)cc2)=Nc2ccc(C)c(C)c2)c1 [(288), 3-Methylphenyl N-(3,4-dimethylphenyl)-3-(4-fluorophenoxy)acrylimidate]
- index number (surviving rate based on untreated check) (Aphis gossypii): 3 (surviving rate 1 to 10%)
- index number (surviving rate based on untreated check) (Nilaparvata lugens): 3 (surviving rate 1 to 10%)

Compound: Cc1cccc(OC(C=COc2cccc(Cl)c2)=Nc2ccc(C)c(C)c2)c1 [(290), 3-Methylphenyl 3-(3-chlorophenoxy)-N-(3,4-dimethylphenyl)acrylimidate]
- index number (surviving rate based on untreated check) (Nilaparvata lugens): 3 (surviving rate 1 to 10%)

Compound: Cc1ccc(N=C(C=CSc2ccccc2F)SCC2CCCCC2)cc1 [(341), Cyclohexylmethyl 3-(2-fluorophenylthio)-N-(4-methylphenyl)-thioacrylimidate]
- index number (surviving rate based on untreated check) (Nilaparvata lugens): 3 (surviving rate 1 to 10%)

Compound: Cc1ccc(N=C(C=CSc2ccccc2Cl)SCC2CCCCC2)cc1 [(345), Cyclohexylmethyl 3-(2-chlorophenylthio)-N-(4-methylphenyl)-thioacrylimidate]
- index number (surviving rate based on untreated check) (Nilaparvata lugens): 3 (surviving rate 1 to 10%)

Compound: Cc1ccc(N=C(C=CSc2ccc(C)cc2C)SCC2CCCCC2)cc1 [(367), Cyclohexylmethyl 3-(2,4-dimethylphenylthio)-N-(4-methylphenyl)-thioacrylimidate]
- index number (surviving rate based on untreated check) (Nilaparvata lugens): 3 (surviving rate 1 to 10%)

Compound: Cc1ccc(N=C(C=CSc2ncccn2)SCC2CCCCC2)cc1 [(370), Cyclohexylmethyl N-(4-methylphenyl)-3-(2-pyrimidinylthio)-thioacrylimidate]
- index number (surviving rate based on untreated check) (Nilaparvata lugens): 3 (surviving rate 1 to 10%)

Compound: Cc1ccc(N=C(C=CSc2ccccc2)SCCc2ccccc2)cc1 [(386), 2-Phenylethyl N-(4-methylphenyl)-3-(phenylthio)thioacrylimidate]
- index number (surviving rate based on untreated check) (Aphis gossypii): 3 (surviving rate 1 to 10%)
- index number (mortality) (Adoxophyes orana): 3 (mortality 80 to 99%)
- index number (mortality) (Spodoptela litura): 3 (mortality 80 to 99%)
- index number (mortality) (Plutella xylostella): 3 (mortality 80 to 99%)
- index number (mortality) (Culex pipiens pallens): 4 (mortality 91 to 100%)
- index number (surviving rate based on untreated check) (Nilaparvata lugens): 3 (surviving rate 1 to 10%)

Compound: Cc1ccc(N=C(C=CSc2ccc(C)cc2)SCCc2ccccc2)cc1 [(407), 1-Phenethyl N-(4-methylphenyl)-3-(4-methylphenylthio)thioacrylimidate]
- index number (surviving rate based on untreated check) (Aphis gossypii): 3 (surviving rate 1 to 10%)
- index number (surviving rate based on untreated check) (Nilaparvata lugens): 3 (surviving rate 1 to 10%)

Compound: Cc1ccc(N=C(C=CSCc2ccc(Cl)cc2Cl)SCC(C)C)cc1 [(464), Isobutyl 3-(2,4-dichlorobenzylthio)-N-(4-methylphenyl)thioacrylimidate]
- index number (surviving rate based on untreated check) (Nilaparvata lugens): 3 (surviving rate 1 to 10%)

Compound: CC(C)=NOC=CC(=Nc1ccc(C)c(C)c1)Oc1cccc(C)c1 [(491), 3-Methylphenyl 3-(1-methylethylideneaminoxy)-N-(3,4-dimethylphenyl)acrylimidate]
- index number (surviving rate based on untreated check) (Nilaparvata lugens): 3 (surviving rate 1 to 10%)

Compound: CCCCCCCCCCOC(C=CSc1ccc(F)cc1)=Nc1ccc(C)cc1 [(598), Decyl 3-(4-fluorophenylthio)-N-(4-methylphenyl)acrylimidate]
- index number (surviving rate based on untreated check) (Aphis gossypii): 3 (surviving rate 1 to 10%)
- index number (mortality) (Adoxophyes orana): 3 (mortality 80 to 99%)
- index number (mortality) (Spodoptela litura): 3 (mortality 80 to 99%)
- index number (mortality) (Plutella xylostella): 3 (mortality 80 to 99%)
- index number (mortality) (Culex pipiens pallens): 4 (mortality 91 to 100%)
- index number (surviving rate based on untreated check) (Nilaparvata lugens): 3 (surviving rate 1 to 10%)
